From ChEMBL document CHEMBL3988442, “University of Dundee, Small-Polar-MMV Screening Library” (2021).

Amino acid sequences for entries named in this document (tags omitted).
UniProt P9WPC5, whole entry: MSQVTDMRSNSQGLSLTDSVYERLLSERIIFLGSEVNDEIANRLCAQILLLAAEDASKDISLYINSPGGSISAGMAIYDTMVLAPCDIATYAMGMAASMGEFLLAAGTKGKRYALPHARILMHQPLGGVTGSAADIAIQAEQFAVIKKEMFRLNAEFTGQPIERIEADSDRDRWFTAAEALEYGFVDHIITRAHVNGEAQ
UniProt P9WPC3, whole entry partner: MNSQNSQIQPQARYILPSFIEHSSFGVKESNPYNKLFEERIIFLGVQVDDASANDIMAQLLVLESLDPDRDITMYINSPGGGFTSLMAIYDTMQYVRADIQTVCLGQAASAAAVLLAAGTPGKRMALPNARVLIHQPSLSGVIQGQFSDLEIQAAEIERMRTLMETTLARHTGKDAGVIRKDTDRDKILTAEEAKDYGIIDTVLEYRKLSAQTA
UniProt P9WNZ1, whole entry: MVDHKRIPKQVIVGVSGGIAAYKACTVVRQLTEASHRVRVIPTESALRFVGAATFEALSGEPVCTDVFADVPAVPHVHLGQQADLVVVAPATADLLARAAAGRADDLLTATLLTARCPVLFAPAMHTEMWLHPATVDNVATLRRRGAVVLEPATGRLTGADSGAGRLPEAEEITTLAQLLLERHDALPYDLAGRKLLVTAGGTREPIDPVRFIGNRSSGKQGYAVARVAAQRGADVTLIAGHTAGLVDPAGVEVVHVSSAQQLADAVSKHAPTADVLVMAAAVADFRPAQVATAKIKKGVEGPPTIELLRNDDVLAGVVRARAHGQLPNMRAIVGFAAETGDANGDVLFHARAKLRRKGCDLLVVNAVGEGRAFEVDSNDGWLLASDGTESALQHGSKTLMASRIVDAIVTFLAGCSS

ClpP1P2: 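Protease assay of ClpP1P2, read by the AMC dye that it sets free. Target: ClpP1P2, Mycobacterium tuberculosis (UniProt P9WPC5 and UniProt P9WPC3). Tested at 50 µM. Direction is inferred from only a few compounds that gave an IC50; most scored high, so higher reads as stronger inhibition. Most other retested compounds had strongly negative values. Of about 69,000 compounds tested this way, about 10 (0.015%) reached 50% or more in at least one test.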
CoaBC: 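Coenzyme A biosynthesis protein CoaBC, Mycobacterium tuberculosis (UniProt P9WNZ1). Enzyme assay of CoaBC with a phosphate dye (Biomol Green) read at 650 nm. Concentration: 30 µM. Direction is inferred from only a few compounds that gave an IC50; most scored high, so higher reads as stronger inhibition. Most strong results did not repeat in a second test. About 67,000 compounds were tested under these conditions; 0.06% (about 40) showed 50% or more at least once.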
Toxoplasma: 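Assay of Toxoplasma gondii numbers, read through their beta-galactosidase reporter with a colour substrate. Tested at 10 µM. The record gives no direction; the compounds picked for IC50 retests had high values, so higher reads as fewer parasites. Size under these conditions: about 67,000 compounds, about 260 of them at 50% or above in at least one test.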

The filed quantity is “Percent Effect” (%).
The controls that fix the scale are not given in the record; negative values are as filed.
Compounds were drawn at random from those tested, without regard to their results.

[H][C@@]12CS(=O)(=O)C[C@]1([H])N(Cc1cc(F)cc(F)c1)CCN2CCO gave Toxoplasma: -16.3%.
COc1cc(CNc2nc3c(c(=O)[nH]2)CCNC3)cc(OC)c1OC gave ClpP1P2: -14.06%; CoaBC: 2.233%; Toxoplasma: -3.071%.
COc1c(NS(=O)(=O)c2ccc(F)c(C)c2)c(C)nn1C gave ClpP1P2: -1.275%; CoaBC: 0.6048%; Toxoplasma: -7.564%.
CCc1nccn1CC(=O)N1C[C@H]2CC[C@@H]1CN(c1ncccn1)C2 gave ClpP1P2: -4.146%; CoaBC: 7.579%.
Cc1cccnc1CN1CCN(CC(=O)N(C)C)[C@@H]2CS(=O)(=O)C[C@@H]21 gave ClpP1P2: -11.51%; CoaBC: 6.818%.
CN1CCOC(C(=O)Nc2nc(-c3ccccc3F)n[nH]2)C1 (centres unmarked) gave ClpP1P2: -6.957%; CoaBC: 4.516%; Toxoplasma: -3.805%.
CCc1nnsc1C(=O)NC1CCN(c2ccccn2)CC1 gave ClpP1P2: 4.937%; CoaBC: 11.45%; Toxoplasma: -0.5848%.
Cc1sc2c(C3CCNCC3)nc(Nc3cccc(F)c3)n2c1C.Cl gave Toxoplasma: 13.89%.
O=C(Nc1ccccn1)NC(CCCO)c1ccccc1 (centres unmarked) gave ClpP1P2: -8.31%; CoaBC: 3.181%; Toxoplasma: 19.77%.
CSCCc1n[nH]c2c1CN(S(=O)(=O)c1c(C)nn(C)c1C)CC2 gave ClpP1P2: -6.667%; CoaBC: -0.216%; Toxoplasma: 10.01%.
CC(=O)Nc1cccc2c1ccn2CC(=O)Nc1ncc[nH]1 gave ClpP1P2: -7.681%; CoaBC: 5.811%; Toxoplasma: 8.749%.
CCOC(=O)N1CCN(C(=O)c2cc(-c3ccc(C)cc3)on2)CC1 gave ClpP1P2: -3.511%; CoaBC: 11.37%; Toxoplasma: 18.27%.
CN1[C@H]2CC[C@@H]1CN(C(=O)CCc1csc(N)n1)CC2 gave ClpP1P2: 3.83%; CoaBC: -24.21%.
Cc1nn(Cc2ccc(C(=O)NCCCN3CCOCC3)o2)c(C)c1Cl gave ClpP1P2: 18.5%; CoaBC: -0.7229%; Toxoplasma: 4.485%.
CN(CCCc1nccn1C)C(=O)C1CCN(C(=O)C2CCC2)CC1 gave ClpP1P2: -15.48%; CoaBC: 2.133%; Toxoplasma: -14.87%.
[H][C@@]12CN(c3nc(C)ccc3C(N)=O)C[C@]1([H])N(C1CCCC1)C(=O)O2 gave Toxoplasma: 5.498%.
CCC(C)N(CC)C(=O)c1ccc2[nH]nnc2c1 (centres unmarked) gave ClpP1P2: 0.5078%; CoaBC: 7.071%; Toxoplasma: 9.256%.
CC(C)(C)C(=O)NCCn1ccc(-c2ccncc2)n1 gave ClpP1P2: -11.11%; CoaBC: 3.625%; Toxoplasma: -0.4379%.
CC(C)N(C)Cc1cnc2n1CCN(C(=O)NC1CCCC1)C2.O=C(O)C(F)(F)F gave Toxoplasma: 0.4992%.
O=C(O)C(F)(F)F.O=C(O)C(F)(F)F.[H][C@]12CN(C)C[C@@]1(C(=O)O)CCCN(Cc1ccc(C)s1)C2 gave Toxoplasma: -36.12%.
CN(C[C@@H]1CCC[C@@H]2CN(Cc3cccnc3)C[C@@H]21)C1CC1 gave ClpP1P2: -1.773%; CoaBC: 2.5%.
CCN(CC)S(=O)(=O)CCNC(=O)c1cc2cccc(F)c2o1 gave ClpP1P2: -1.367%; CoaBC: 0%; Toxoplasma: 1.661%.
c1ccc(Cn2cc(CNCC3CCCN3c3cccnn3)cn2)cc1 (centres unmarked) gave ClpP1P2: 6.824%; CoaBC: -0.1669%; Toxoplasma: 0.06277%.
Cc1cccc(OC(C)C(=O)NCC2(N(C)C)CCCC2)c1 (centres unmarked) gave ClpP1P2: 16.71%; CoaBC: -9.917%; Toxoplasma: -6.923%.
CC(=O)NCc1nnc2n1CCN(Cc1cccs1)C2.O=C(O)C(F)(F)F gave Toxoplasma: -2.606%.

2 of the entries, repeated:

{"compound": "[H][C@@]12CN(c3nc(C)ccc3C(N)=O)C[C@]1([H])N(C1CCCC1)C(=O)O2", "Toxoplasma": 5.498}
{"compound": "CN1CCOC(C(=O)Nc2nc(-c3ccccc3F)n[nH]2)C1", "stereo": "centres unmarked", "ClpP1P2": -6.957, "CoaBC": 4.516, "Toxoplasma": -3.805}